According to article PMC3585277, “The C-Terminal Region Mesd Peptide Mimics Full-Length Mesd and Acts as an Inhibitor of Wnt/β-Catenin Signaling in Cancer Cells” (PLoS ONE, 2013):
Results are given in words; binding and its absence hold for the method and conditions named. Some entries that bind do so weakly or less than the wild type. One block for each binder: values may come before it.

Amino acid sequences for entries named in this document (tags omitted). Residues count along the entry.
UniProt O75197, residues 32-1615: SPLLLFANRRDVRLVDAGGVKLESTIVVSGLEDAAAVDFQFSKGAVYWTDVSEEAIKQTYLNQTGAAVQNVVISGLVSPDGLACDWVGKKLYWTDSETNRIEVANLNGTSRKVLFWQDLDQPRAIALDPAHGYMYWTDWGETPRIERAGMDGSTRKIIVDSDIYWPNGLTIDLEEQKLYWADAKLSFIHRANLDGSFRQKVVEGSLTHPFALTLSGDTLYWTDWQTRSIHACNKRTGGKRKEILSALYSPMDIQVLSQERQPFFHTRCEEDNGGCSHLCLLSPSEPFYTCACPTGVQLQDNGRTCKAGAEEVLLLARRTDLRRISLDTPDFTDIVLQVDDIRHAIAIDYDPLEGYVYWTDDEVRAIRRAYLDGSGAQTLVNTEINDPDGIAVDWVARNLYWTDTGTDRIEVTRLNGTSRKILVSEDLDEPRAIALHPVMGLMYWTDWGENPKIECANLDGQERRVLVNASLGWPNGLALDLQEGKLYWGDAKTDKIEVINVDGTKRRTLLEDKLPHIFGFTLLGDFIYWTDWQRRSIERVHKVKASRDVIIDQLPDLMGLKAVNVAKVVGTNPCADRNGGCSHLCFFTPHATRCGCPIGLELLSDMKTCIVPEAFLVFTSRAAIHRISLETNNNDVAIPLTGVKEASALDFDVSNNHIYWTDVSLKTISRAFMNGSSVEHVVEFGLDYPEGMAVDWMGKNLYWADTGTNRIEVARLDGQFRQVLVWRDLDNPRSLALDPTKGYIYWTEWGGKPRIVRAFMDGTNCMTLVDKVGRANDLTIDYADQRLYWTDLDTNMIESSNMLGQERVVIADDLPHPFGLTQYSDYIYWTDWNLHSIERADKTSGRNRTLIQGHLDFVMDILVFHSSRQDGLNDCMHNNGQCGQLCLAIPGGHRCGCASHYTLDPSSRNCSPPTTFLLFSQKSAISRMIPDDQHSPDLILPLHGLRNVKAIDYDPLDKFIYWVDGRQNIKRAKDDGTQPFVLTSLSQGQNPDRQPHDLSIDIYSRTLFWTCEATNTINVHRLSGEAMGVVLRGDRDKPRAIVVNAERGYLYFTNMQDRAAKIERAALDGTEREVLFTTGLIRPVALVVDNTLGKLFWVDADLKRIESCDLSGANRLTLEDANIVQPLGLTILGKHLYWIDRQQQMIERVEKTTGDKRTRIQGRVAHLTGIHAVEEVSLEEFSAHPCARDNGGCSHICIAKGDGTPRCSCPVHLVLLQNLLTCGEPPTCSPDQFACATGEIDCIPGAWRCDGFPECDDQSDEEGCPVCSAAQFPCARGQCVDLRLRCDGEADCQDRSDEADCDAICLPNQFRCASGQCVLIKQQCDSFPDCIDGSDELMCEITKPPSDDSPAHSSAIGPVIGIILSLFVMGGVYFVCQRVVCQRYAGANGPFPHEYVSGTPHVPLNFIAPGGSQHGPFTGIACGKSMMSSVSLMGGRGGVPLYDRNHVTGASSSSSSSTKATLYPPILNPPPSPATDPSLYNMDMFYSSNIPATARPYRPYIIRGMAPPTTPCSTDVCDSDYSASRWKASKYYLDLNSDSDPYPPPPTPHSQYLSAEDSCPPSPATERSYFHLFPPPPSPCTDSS
UniProt O75581, residues 20-1613: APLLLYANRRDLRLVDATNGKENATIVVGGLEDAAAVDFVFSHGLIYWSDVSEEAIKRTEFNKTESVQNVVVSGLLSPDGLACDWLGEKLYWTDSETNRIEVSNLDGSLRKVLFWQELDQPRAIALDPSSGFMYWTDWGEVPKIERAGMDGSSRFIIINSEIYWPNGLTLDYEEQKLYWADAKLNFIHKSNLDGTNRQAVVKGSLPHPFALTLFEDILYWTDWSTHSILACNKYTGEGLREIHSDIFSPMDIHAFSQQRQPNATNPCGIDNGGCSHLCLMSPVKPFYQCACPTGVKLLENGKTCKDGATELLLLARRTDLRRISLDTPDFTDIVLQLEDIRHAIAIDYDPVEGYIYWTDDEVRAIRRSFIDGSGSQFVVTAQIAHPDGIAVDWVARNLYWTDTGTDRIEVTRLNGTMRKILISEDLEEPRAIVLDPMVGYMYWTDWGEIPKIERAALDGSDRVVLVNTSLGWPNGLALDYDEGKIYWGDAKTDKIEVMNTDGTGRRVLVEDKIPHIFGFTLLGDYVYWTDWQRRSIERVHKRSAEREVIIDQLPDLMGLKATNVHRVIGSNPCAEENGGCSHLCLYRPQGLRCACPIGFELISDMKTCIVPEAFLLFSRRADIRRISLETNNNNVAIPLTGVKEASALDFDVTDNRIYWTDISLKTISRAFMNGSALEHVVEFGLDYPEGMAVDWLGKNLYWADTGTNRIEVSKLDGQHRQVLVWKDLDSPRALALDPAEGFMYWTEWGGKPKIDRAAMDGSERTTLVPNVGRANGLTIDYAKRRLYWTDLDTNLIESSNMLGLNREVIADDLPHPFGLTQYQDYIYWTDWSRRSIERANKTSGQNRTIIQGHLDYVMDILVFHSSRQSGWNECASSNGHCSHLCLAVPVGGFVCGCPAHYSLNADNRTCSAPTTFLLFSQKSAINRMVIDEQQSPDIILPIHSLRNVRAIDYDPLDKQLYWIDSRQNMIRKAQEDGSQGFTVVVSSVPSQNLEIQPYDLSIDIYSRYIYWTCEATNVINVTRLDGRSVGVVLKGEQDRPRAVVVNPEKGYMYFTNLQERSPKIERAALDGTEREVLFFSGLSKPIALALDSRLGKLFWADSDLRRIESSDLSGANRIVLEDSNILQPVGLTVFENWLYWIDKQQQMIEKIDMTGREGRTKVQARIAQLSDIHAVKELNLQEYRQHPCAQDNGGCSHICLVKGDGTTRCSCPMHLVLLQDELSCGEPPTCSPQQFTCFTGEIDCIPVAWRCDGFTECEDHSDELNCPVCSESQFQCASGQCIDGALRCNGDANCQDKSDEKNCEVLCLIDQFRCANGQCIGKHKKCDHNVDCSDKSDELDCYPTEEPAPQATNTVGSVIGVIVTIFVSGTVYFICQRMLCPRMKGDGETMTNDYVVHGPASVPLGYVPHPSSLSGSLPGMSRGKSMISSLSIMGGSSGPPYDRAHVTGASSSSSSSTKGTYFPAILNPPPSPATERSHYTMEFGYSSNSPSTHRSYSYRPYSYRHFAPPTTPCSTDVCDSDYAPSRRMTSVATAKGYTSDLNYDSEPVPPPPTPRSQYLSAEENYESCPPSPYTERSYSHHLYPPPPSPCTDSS

What was measured:
[1] = molecular target: LRP5 on LRP5-transfected ldlA7 (LDLR-deficient CHO) cells (human) (UniProt O75197); experiment: radioligand binding; 125I-Mesd (5 nM) on monolayers of LRP6-transduced HT1080 cells or LRP5-transfected ldlA7 cells, 4 h at 4°C, minimal Eagle's medium with 0.6% BSA, in the absence or presence of unlabeled Mesd or Mesd peptides; cells washed, lysed and counted; only the binder purified
[2] = molecular target: LRP6 on LRP6-transduced HT1080 cells (human) (UniProt O75581); experiment: as above

- binding [1]: binds
- binding [2]: binds
Binder: QMYPGKGGGSKEKNKTKPEKAKKKEGDPKPRASKEDNRAGSRREDL (peptide, UniProt Q9ERE7 179-224) [mouse Mesd C-terminal region peptide mMesd (150–195)]

- binding [1]: binds
- binding [2]: binds
B1: recombinant mouse Mesd protein (protein, UniProt Q9ERE7 30-224)
chain: ADTPGEATPPPRKKKDIRDYNDADMARLLEQWEKDDDIEEGDLPEHKRPSAPIDFSKLDPGKPESILKMTKKGKTLMMFVTVSGNPTEKETEEITSLWQGSLFNANYDVQRFIVGSDRAIFMLRDGSYAWEIKDFLVSQDRCAEVTLEGQMYPGKGGGSKEKNKTKPEKAKKKEGDPKPRASKEDNRAGSRREDL
modifications: 125I (IODO-GEN method) on the radioligand; unlabeled when used as competitor
